Experimental findings from paper doi:10.1101/2021.05.02.442373 are described below.

Assay [1] addresses T1, untagged human p75^NTR death domain (330-427) (human), P08138.
T1 chain: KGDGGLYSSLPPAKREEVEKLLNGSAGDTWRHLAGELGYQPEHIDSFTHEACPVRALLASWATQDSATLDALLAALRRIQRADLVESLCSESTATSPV
As to the kind of experiment: dynamic light scattering. The following applies: remark: other sources report otherwise.

Assay [2] has as its target T1, untagged human p75^NTR death domain …. As to the kind of experiment: SEC. The following applies: remark: other sources report otherwise.

Results are given in words; binding and its absence hold for the method and conditions named. Some results given as binding are weak or reduced against the parent protein; the word gives no strength. Where a sequence is shown, tags or fusion partners need not be part of it.

B1: untagged human p75^NTR death domain (330-427), P08138 330-427 (domain or fragment)
chain: T1 chain
For the molecule B1, the binding result in assay [1] and in assay [2] was “binds” each time.
